Assay results taken from patent US9289496B2, “Lipid dipeptide and gel” (Nissan Chemical Industries, Ltd., priority 2008, dated 2016).
At least one structure is not confirmed: it was looked up by name or label, or the drawing left a doubt. Residues, ends and D or L forms follow the SMILES beside them.

Experiment: Solubilization test of hydrophobic substance
Assay type: physicochemical
Conditions: 0.2 wt %; vitamin E 100 μM to 500 μM in phosphate buffer (pH 7.5) containing 5% ethanol

CCCCCCCCCCCCCCCC(=O)NCC(=O)N[C@@H](Cc1c[nH]cn1)C(=O)O.O=C(O)C(F)(F)F [Example 1, N-palmitoyl-Gly-His.TFA salt] (HELM PEPTIDE1{[CCCCCCCCCCCCCCCC(=O)[*:2]].G.H}$$$$V2.0)
Solubilization of vitamin E in the gel: vitamin E could be solubilized in the gel
